Consider five molecules from patent US20250283871A1, “COMPOSITIONS AND METHODS FOR MODULATING THE INTERACTION BETWEEN SS18-SSX FUSION ONCOPROTEIN AND NUCLEOSOMES” (Dana-Farber Cancer Institute, Inc., priority 2020, published 2025).

The data set deals with BAF complex subunits and histone proteins. The data set can be described thus: Mass spectrometry proteomics of purified HA-SS18 WT and HA-SS18-SSX1 complexes (Tables 5A-5E). The arrangement: species or system human.
Setting [1] is: HA-SS18SSX1_CHR_peptides: protein identified in the HA-SS18-SSX1 purification from solubilized chromatin (CHR), HEK-293T.
Setting [2] is: HA-SS18SSX1_NE_peptides: protein co-purified with HA-SS18-SSX1 BAF complexes from soluble nuclear extract (NE), HEK-293T cells.
Setting [3] is: HA-SS18WT_CHR_peptides: protein identified in HA-SS18 WT BAF complex purification from nuclease-treated solubilized chromatin (CHR), HEK-293T.
Setting [4] is: HA-SS18WT_NE_peptides: HA-SS18 WT complexes purified from nuclear extract (NE), HEK-293T, label = protein identified (Gene Symbol).
Where [5] appears, read: HA-SS18SSX1 purification, NE (soluble nuclear extract) fraction, HEK-293T, peptides per identified protein.
Where [6] appears, read: HA-SS18WT_CHR_peptides: HA-SS18 WT purification from nuclease-treated solubilized chromatin (CHR), HEK-293T, label = protein identified.

B1: BRD7 (protein, UniProt Q9NPI1 1-651, looked up)
Bromodomain-containing …: MGKKHKKHKSDKHLYEEYVEKPLKLVLKVGGNEVTELSTGSSGHDSSLFEDKNDHDKHKDRKRKKRKKGEKQIPGEEKGRKRRRVKEDKKKRDRDRVENEAEKDLQCHAPVRLDLPPEKPLTSSLAKQEEVEQTPLQEALNQLMRQLQRKDPSAFFSFPVTDFIAPGYSMIIKHPMDFSTMKEKIKNNDYQSIEELKDNFKLMCTNAMIYNKPETIYYKAAKKLLHSGMKILSQERIQSLKQSIDFMADLQKTRKQKDGTDTSQSGEDGGCWQREREDSGDAEAHAFKSPSKENKKKDKDMLEDKFKSNNLEREQEQLDRIVKESGGKLTRRLVNSQCEFERRKPDGTTTLGLLHPVDPIVGEPGYCPVRLGMTTGRLQSGVNTLQGFKEDKRNKVTPVLYLNYGPYSSYAPHYDSTFANISKDDSDLIYSTYGEDSDLPSDFSIHEFLATCQDYPYVMADSLLDVLTKGGHSRTLQEMEMSLPEDEGHTRTLDTAKEMEITEVEPPGRLDSSTQDRLIALKAVTNFGVPVEVFDSEEAEIFQKKLDETTRLLRELQEAQNERLSTRPPPNMICLLGPSYREMHLAEQVTNNLKELAQQVTPGDIVSTYGVRKAMGISIPSPVMENNFVDLTEDTEEPKKTDVAECGPGGS
Consider B1, for which, under setting [1], the “Total (total peptides)” value came out at 4 and the “Unique (unique peptides)” value amounted to 4. Besides, under setting [2], the “Total (peptides)” value worked out at 2 and the “Unique (peptides)” value was determined as 2. For the same molecule, under setting [3], the “Total (total peptides)” value amounted to 1 and the “Unique (unique peptides)” value amounted to 1. Further, under setting [4], the “Total (peptides)” value is listed as 5 and the “Unique (peptides)” value is 4.

B2: RBM39 (protein, UniProt Q14498 2-530, looked up)
RNA-binding protein 39: ADDIDIEAMLEAPYKKDENKLSSANGHEERSKKRKKSKSRSRSHERKRSKSKERKRSRDRERKKSKSRERKRSRSKERRRSRSRSRDRRFRGRYRSPYSGPKFNSAIRGKIGLPHSIKLSRRRSRSKSPFRKDKSPVREPIDNLTPEERDARTVFCMQLAARIRPRDLEEFFSTVGKVRDVRMISDRNSRRSKGIAYVEFVDVSSVPLAIGLTGQRVLGVPIIVQASQAEKNRAAAMANNLQKGSAGPMRLYVGSLHFNITEDMLRGIFEPFGRIESIQLMMDSETGRSKGYGFITFSDSECAKKALEQLNGFELAGRPMKVGHVTERTDASSASSFLDSDELERTGIDLGTTGRLQLMARLAEGTGLQIPPAAQQALQMSGSLAFGAVAEFSFVIDLQTRLSQQTEASALAAAASVQPLATQCFQLSNMFNPQTEEEVGWDTEIKDDVIEECNKHGGVIHIYVDKNSAQGNVYVKCPSIAAAIAAVNALHGRWFAGKMITAAYVPLPTYHNLFPDSMTATQLLVPSRR
As to B2, under setting [1], the “Total (total peptides)” value was 4 and the “Unique (unique peptides)” value is recorded as 4. Under setting [5], the “Total (total peptides)” value is 3 and the “Unique (unique peptides)” value came to 3. For the same molecule, under setting [3], the “Total (total peptides)” value is recorded as 2 and the “Unique (unique peptides)” value is recorded as 2. Also, under setting [4], the “Total (peptides)” value came to 3 and the “Unique (peptides)” value was 3.

B3: ACIN1 (protein, UniProt Q9UKV3 1-1341, looked up)
Apoptotic chromatin …: MWRRKHPRTSGGTRGVLSGNRGVEYGSGRGHLGTFEGRWRKLPKMPEAVGTDPSTSRKMAELEEVTLDGKPLQALRVTDLKAALEQRGLAKSGQKSALVKRLKGALMLENLQKHSTPHAAFQPNSQIGEEMSQNSFIKQYLEKQQELLRQRLEREAREAAELEEASAESEDEMIHPEGVASLLPPDFQSSLERPELELSRHSPRKSSSISEEKGDSDDEKPRKGERRSSRVRQARAAKLSEGSQPAEEEEDQETPSRNLRVRADRNLKTEEEEEEEEEEEEDDEEEEGDDEGQKSREAPILKEFKEEGEEIPRVKPEEMMDERPKTRSQEQEVLERGGRFTRSQEEARKSHLARQQQEKEMKTTSPLEEEEREIKSSQGLKEKSKSPSPPRLTEDRKKASLVALPEQTASEEETPPPLLTKEASSPPPHPQLHSEEEIEPMEGPAPAVLIQLSPPNTDADTRELLVSQHTVQLVGGLSPLSSPSDTKAESPAEKVPEESVLPLVQKSTLADYSAQKDLEPESDRSAQPLPLKIEELALAKGITEECLKQPSLEQKEGRRASHTLLPSHRLKQSADSSSSRSSSSSSSSSRSRSRSPDSSGSRSHSPLRSKQRDVAQARTHANPRGRPKMGSRSTSESRSRSRSRSRSASSNSRKSLSPGVSRDSSTSYTETKDPSSGQEVATPPVPQLQVCEPKERTSTSSSSVQARRLSQPESAEKHVTQRLQPERGSPKKCEAEEAEPPAATQPQTSETQTSHLPESERIHHTVEEKEEVTMDTSENRPENDVPEPPMPIADQVSNDDRPEGSVEDEEKKESSLPKSFKRKISVVSATKGVPAGNSDTEGGQPGRKRRWGASTATTQKKPSISITTESLKSLIPDIKPLAGQEAVVDLHADDSRISEDETERNGDDGTHDKGLKICRTVTQVVPAEGQENGQREEEEEEKEPEAEPPVPPQVSVEVALPPPAEHEVKKVTLGDTLTRRSISQQKSGVSITIDDPVRTAQVPSPPRGKISNIVHISNLVRPFTLGQLKELLGRTGTLVEEAFWIDKIKSHCFVTYSTVEEAVATRTALHGVKWPQSNPKFLCADYAEQDELDYHRGLLVDRPSETKTEEQGIPRPLHPPPPPPVQPPQHPRAEQREQERAVREQWAEREREMERRERTRSEREWDRDKVREGPRSRSRSRDRRRKERAKSKEKKSEKKEKAQEEPPAKLLDDLFRKTKAAPCIYWLPLTDSQIVQKEAERAERAKEREKRRKEQEEEEQKEREKEAERERNRQLEREKRREHSRERDRERERERERDRGDRDRDRERDRERGRERDRRDTKRHSRSRSRSTPVRDRGGRR
On to B3, for which, under setting [1], the “Total (total peptides)” value worked out at 54 and the “Unique (unique peptides)” value was determined as 27. Besides, under setting [6], the “Total (peptides)” value is on record as 13 and the “Unique (peptides)” value is 12.

B4: FYTTD1 (protein, UniProt Q96QD9 1-318, looked up)
UAP56-interacting factor: MNRFGTRLVGATATSSPPPKARSNENLDKIDMSLDDIIKLNRKEGKKQNFPRLNRRLLQQSGAQQFRMRVRWGIQQNSGFGKTSLNRRGRVMPGKRRPNGVITGLAARKTTGIRKGISPMNRPPLSDKNIEQYFPVLKRKANLLRQNEGQRKPVAVLKRPSQLSRKNNIPANFTRSGNKLNHQKDTRQATFLFRRGLKVQAQLNTEQLLDDVVAKRTRQWRTSTTNGGILTVSIDNPGAVQCPVTQKPRLTRTAVPSFLTKREQSDVKKVPKGVPLQFDINSVGKQTGMTLNERFGILKEQRATLTYNKGGSRFVTVG
B4: under setting [1], the “Total (total peptides)” value amounted to 4 and the “Unique (unique peptides)” value amounted to 4. In addition, under setting [6], the “Total (peptides)” value amounted to 3 and the “Unique (peptides)” value amounted to 3.

B5: TRIM28 (protein, UniProt Q13263 2-835, looked up)
Transcription intermediary …: AASAAAASAAAASAASGSPGPGEGSAGGEKRSTAPSAAASASASAAASSPAGGGAEALELLEHCGVCRERLRPEREPRLLPCLHSACSACLGPAAPAAANSSGDGGAAGDGTVVDCPVCKQQCFSKDIVENYFMRDSGSKAATDAQDANQCCTSCEDNAPATSYCVECSEPLCETCVEAHQRVKYTKDHTVRSTGPAKSRDGERTVYCNVHKHEPLVLFCESCDTLTCRDCQLNAHKDHQYQFLEDAVRNQRKLLASLVKRLGDKHATLQKSTKEVRSSIRQVSDVQKRVQVDVKMAILQIMKELNKRGRVLVNDAQKVTEGQQERLERQHWTMTKIQKHQEHILRFASWALESDNNTALLLSKKLIYFQLHRALKMIVDPVEPHGEMKFQWDLNAWTKSAEAFGKIVAERPGTNSTGPAPMAPPRAPGPLSKQGSGSSQPMEVQEGYGFGSGDDPYSSAEPHVSGVKRSRSGEGEVSGLMRKVPRVSLERLDLDLTADSQPPVFKVFPGSTTEDYNLIVIERGAAAAATGQPGTAPAGTPGAPPLAGMAIVKEEETEAAIGAPPTATEGPETKPVLMALAEGPGAEGPRLASPSGSTSSGLEVVAPEGTSAPGGGPGTLDDSATICRVCQKPGDLVMCNQCEFCFHLDCHLPALQDVPGEEWSCSLCHVLPDLKEEDGSLSLDGADSTGVVAKLSPANQRKCERVLLALFCHEPCRPLHQLATDSTFSLDQPGGTLDLTLIRARLQEKLSPPYSSPQEFAQDVGRMFKQFNKLTEDKADVQSIIGLQRFFETRMNEAFGDTKFSAVLVEPPPMSLPGAGLSSQELSGGPGDGP
Turning to B5, under setting [1], the “Total (total peptides)” value is listed as 4 and the “Unique (unique peptides)” value was determined as 4. Further, under setting [3], the “Total (total peptides)” value was determined as 1 and the “Unique (unique peptides)” value turned out to be 1.
